Values of other authors in EP2628482A1, “Rho kinase inhiitors for use in the treatment of neuroblastoma” (Academisch Medisch Centrum, priority 2012, dated 2013).
For at least one compound, name, drawing or mass did not settle the structure.

Target: Rho-kinase
Details: cited from earlier work

C[C@H]1CNCCCN1S(=O)(=O)c1cccc2cncc(F)c12 [K-115, Isoquinolinesulfonamide]
IC50: 31 nM
